The values below come from publication PMC10688980.

Chains of the proteins cited; added tags and fusions are not shown.
UniProt O00487: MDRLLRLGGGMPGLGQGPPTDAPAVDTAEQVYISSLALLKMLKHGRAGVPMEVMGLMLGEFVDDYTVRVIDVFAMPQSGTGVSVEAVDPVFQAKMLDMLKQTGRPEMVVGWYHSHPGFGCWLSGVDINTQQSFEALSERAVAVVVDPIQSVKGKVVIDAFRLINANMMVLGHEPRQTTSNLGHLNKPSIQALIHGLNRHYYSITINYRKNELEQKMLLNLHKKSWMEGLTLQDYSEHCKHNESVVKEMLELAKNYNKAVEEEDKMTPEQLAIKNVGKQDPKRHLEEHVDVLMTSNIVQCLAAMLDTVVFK
UniProt O00232: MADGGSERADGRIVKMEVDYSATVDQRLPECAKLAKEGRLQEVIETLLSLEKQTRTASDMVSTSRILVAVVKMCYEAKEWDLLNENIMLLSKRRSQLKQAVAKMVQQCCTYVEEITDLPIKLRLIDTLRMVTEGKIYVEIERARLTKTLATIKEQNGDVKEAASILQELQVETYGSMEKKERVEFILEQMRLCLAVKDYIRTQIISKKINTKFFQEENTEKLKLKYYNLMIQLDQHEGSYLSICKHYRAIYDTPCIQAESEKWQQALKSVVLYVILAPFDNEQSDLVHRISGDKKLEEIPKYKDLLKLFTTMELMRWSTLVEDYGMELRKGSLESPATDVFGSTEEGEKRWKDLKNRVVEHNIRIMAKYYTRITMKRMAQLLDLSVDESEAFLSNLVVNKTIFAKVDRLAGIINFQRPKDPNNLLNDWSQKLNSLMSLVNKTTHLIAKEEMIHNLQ
UniProt P62333: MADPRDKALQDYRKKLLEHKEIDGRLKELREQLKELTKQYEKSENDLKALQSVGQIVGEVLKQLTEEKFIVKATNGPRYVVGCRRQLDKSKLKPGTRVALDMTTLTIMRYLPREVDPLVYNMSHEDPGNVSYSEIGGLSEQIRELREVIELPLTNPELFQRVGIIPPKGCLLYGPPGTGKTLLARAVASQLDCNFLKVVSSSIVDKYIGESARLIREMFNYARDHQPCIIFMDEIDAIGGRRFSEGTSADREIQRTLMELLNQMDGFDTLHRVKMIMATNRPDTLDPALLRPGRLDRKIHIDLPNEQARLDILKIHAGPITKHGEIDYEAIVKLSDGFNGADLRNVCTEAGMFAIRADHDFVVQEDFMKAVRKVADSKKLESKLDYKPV
UniProt Q16186: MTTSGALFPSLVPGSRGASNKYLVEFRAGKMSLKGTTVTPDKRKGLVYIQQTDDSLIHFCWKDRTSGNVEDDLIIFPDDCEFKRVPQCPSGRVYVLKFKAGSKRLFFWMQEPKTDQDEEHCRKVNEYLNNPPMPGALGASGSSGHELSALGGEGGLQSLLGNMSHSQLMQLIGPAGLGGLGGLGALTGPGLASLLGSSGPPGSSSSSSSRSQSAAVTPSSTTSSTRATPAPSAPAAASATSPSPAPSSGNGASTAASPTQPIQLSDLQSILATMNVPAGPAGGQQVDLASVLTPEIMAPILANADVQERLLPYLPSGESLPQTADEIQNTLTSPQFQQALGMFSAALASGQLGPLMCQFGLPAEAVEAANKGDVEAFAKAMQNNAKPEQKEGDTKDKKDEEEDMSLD
UniProt Q16401: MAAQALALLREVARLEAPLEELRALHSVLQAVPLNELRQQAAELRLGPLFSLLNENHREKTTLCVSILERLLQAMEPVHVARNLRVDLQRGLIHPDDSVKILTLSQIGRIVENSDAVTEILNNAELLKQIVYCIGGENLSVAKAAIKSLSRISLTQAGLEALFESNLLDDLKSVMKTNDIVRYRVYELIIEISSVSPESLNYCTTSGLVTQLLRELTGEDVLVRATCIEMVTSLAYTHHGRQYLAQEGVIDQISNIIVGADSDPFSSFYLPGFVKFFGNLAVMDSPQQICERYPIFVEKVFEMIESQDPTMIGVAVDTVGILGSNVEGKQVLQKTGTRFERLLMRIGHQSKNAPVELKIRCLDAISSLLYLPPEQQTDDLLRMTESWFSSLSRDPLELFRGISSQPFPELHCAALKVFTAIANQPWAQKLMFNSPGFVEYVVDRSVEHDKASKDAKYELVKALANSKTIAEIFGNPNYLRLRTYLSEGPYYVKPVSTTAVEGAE

No constants are given. Whether binding was seen depends on the method and setting. Binding seen in cells or lysates may run through a third protein. Some results given as binding are weak or reduced against the parent protein; the word gives no strength. For some assays here: Tags and fused reporters may be left off the sequences shown.

The target of one assay is T1, 6xHis-WDR70 (112–654 aa) (UniProt Q9NW82).
T1 sequence: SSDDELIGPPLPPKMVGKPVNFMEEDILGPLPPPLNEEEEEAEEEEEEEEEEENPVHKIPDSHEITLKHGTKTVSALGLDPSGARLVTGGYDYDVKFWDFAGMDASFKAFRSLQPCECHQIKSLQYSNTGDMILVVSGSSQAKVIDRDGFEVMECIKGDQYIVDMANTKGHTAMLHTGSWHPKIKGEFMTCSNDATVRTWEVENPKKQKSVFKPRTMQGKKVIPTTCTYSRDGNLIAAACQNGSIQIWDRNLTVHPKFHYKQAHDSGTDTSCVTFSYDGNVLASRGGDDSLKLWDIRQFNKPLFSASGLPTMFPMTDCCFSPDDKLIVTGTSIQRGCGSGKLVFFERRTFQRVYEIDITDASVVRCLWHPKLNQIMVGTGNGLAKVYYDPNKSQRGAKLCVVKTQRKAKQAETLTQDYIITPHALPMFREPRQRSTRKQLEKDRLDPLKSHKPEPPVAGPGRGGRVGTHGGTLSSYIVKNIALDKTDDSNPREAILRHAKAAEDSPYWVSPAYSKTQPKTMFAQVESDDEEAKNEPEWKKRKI
The assay is described as follows: pull-down; 19S particles dissociated in nuclear HEK293T extracts with high-salt buffer (600 mM NaCl) and incubated with His-WDR70 (112–654 aa) purified from Sf9 cells; only the target purified.

In the next assay the target is FLAG-POH1^Rpn11 (UniProt O00487). The assay is described as follows: co-IP; endogenous WDR70 and FLAG-tagged 19S subunits, with or without PSMD5 silencing.
The next assay concerns the target FLAG-PSMD12^Rpn5 (UniProt O00232). The assay is described as above.
Another assay has as its target FLAG-PSMC6^Rpt4 (UniProt P62333). Described as above.
The next assay has as its target FLAG-ADRM1^Rpn13 (human) (UniProt Q16186). The description is as above.

On to “PSMD5^Hsm3 (endogenous, HEK293T nuclear extract) (from UniProt Q16401 1-504)”, for which the binding entry with 6xHis-WDR70 (112–654 aa) is “binds”.

B1: WDR70 (endogenous, human cells) (protein, UniProt Q9NW82 1-654)
chain: MERSGPSEVTGSDASGPDPQLAVTMGFTGFGKKARTFDLEAMFEQTRRTAVERSRKTLEAREKEEEMNREKELRRQNEDIEPTSSRSNVVRDCSKSSSRDTSSSESEQSSDSSDDELIGPPLPPKMVGKPVNFMEEDILGPLPPPLNEEEEEAEEEEEEEEEEENPVHKIPDSHEITLKHGTKTVSALGLDPSGARLVTGGYDYDVKFWDFAGMDASFKAFRSLQPCECHQIKSLQYSNTGDMILVVSGSSQAKVIDRDGFEVMECIKGDQYIVDMANTKGHTAMLHTGSWHPKIKGEFMTCSNDATVRTWEVENPKKQKSVFKPRTMQGKKVIPTTCTYSRDGNLIAAACQNGSIQIWDRNLTVHPKFHYKQAHDSGTDTSCVTFSYDGNVLASRGGDDSLKLWDIRQFNKPLFSASGLPTMFPMTDCCFSPDDKLIVTGTSIQRGCGSGKLVFFERRTFQRVYEIDITDASVVRCLWHPKLNQIMVGTGNGLAKVYYDPNKSQRGAKLCVVKTQRKAKQAETLTQDYIITPHALPMFREPRQRSTRKQLEKDRLDPLKSHKPEPPVAGPGRGGRVGTHGGTLSSYIVKNIALDKTDDSNPREAILRHAKAAEDSPYWVSPAYSKTQPKTMFAQVESDDEEAKNEPEWKKRKI
In the case of B1, the binding result in the assay with FLAG-POH1^Rpn11, with FLAG-PSMD12^Rpn5, in the assay with FLAG-PSMC6^Rpt4 and with FLAG-ADRM1^Rpn13 (human) was “binds” in each case.
